# PubChem BioAssay AID2685 (National Center for Advancing Translational Sciences (NCATS), 2010)
# “And” between values parts separate entries of the source, which are not always exact repeats. Equal values may be shown once. Some of the results follow. Shown are side measurements of this screen, not its main read-out; they come without a call. Compounds called inactive in the main read-out are mostly missing here. Words in brackets tell the shape of the fitted curve; partial curves, single points and poor fits give uncertain potencies.
# Assay: qHTS Assay for Lipid Storage Modulators in Drosophila S3 Cells;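 on cell number change: cells counted by Cell Tracker Red CMTPX staining in the red channel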
# Conditions: BODIPY lipid droplet fluorescence, 18-24 h; for cell number change: measured here: cell count max response, cells fed with added oleic acid
# Procedure, shortened: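 Drosophila S3 cells loaded with oleic acid (400 uM, as added) and compounds at several concentrations; lipid droplets imaged by 488-nm laser-scanning cytometry, 500–530 nm intensity and object ratio to cell channel. Percent activity normalized to 20 uM Triacsin C.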
# [1] = measured here: cell number channel AC50, cells fed with added oleic acid
# [2] = measured here: lipid fluorescence (Fed channel) AC50, cells fed with added oleic acid
Compound,cell number change,AC50 [1],AC50 [2]
COc1ccc(OC)c(CN2CCC(C(=O)N3CCOCC3)CC2)c1,11.1%,"0.461 µM [falling, single point]",–
Cc1ccc(C)c(OCCCCN2CCNCC2)c1C,-16%,–,"18.4 µM [rising, single point]"
COC(=O)NNC(=O)c1ccc(C)c(Br)c1,–,–,"0.82 µM [rising, single point]"
CN1C(=O)N(C)C2(c3ccccc3)N(C(C)(C)C)C(=O)NC12c1ccccc1 (stereo unspecified),-18%,–,"0.00517 µM [rising, full curve, poor fit]"
Nc1nnc(SCC(=O)NC2CCCC2)s1,23.3%,–,"29.1 µM [rising, single point]"
CC(=O)NC(Cc1ccc(C(C)C)cc1)C(=O)NC1CCN(c2nc(C)cc(C)n2)CC1 (stereo unspecified),-5.15%,–,–
C/C=C/C(=O)OCC(=O)Nc1nc2ccc(C)cc2s1,0.583%,–,"0.651 µM [rising, full curve, poor fit]"
CN(C)S(=O)(=O)c1cccc(NC(=O)COC(=O)c2c[nH]c(=O)[nH]c2=O)c1,-41.8%,–,–
Cc1cccn2c(=O)nc(SCC(=O)NCc3ccc4c(c3)OCO4)nc12,–,–,"6.51 µM [rising, single point]"
CCCOc1cccc(C(=O)Nc2cccc3ncccc23)c1,-21.7%,–,"29.1 µM [falling, single point]"
CC(=O)Nc1ccc(NC(=O)c2ccccc2S(=O)(=O)c2ccccc2[N+](=O)[O-])cc1,52.5%,"29.1 µM [rising, single point]","29.1 µM [falling, single point]"
CC1c2cc3c(cc2CCN1CC(=O)Nc1ccc(S(=O)(=O)N2CCCC2)cc1)OCCCO3 (stereo unspecified),-8.36%,–,"29.1 µM [falling, single point]"
COc1ccccc1C1C2=C(CCCC2=O)N(CC(=O)O)C2=C1C(=O)CCC2,6.59%,–,"25.9 µM [rising, single point]"
CCOP(=O)(OCC)C(NC(=O)c1cccs1)c1ccccc1 (stereo unspecified),6.72%,–,"6.51 µM [rising, single point]"
Cc1ccc(C)c(NC(=S)NNC(=O)c2csc3c2CCCC3)c1,-1.94%,"0.13 µM [rising, full curve, poor fit]","0.103 µM [rising, full curve, poor fit]"
Cc1ccc(NC(=O)CNC(=O)Cc2cccc3ccccc23)nc1,–,–,"16.4 µM [rising, partial curve]"
COc1ccc(S(=O)(=O)N2CCOCC2)cc1C(=O)NC1CCCCCC1,–,–,"0.326 µM [falling, partial curve]"
Cc1ccc2nc3c(cc(C(=O)NCC4CCCO4)c(=N)n3C3CCCC3)c(=O)n2c1 (stereo unspecified),-7.62%,–,"29.1 µM [rising, partial curve]"
Cn1c(COc2ccc([N+](=O)[O-])cc2)nnc1SCC(=O)NCC1CCCO1 (stereo unspecified),-20%,–,"0.206 µM [rising, single point]"
CC(C)c1ccc(N(CC(=O)NC2CCCC2)C(=O)CCC(=O)Nc2nccs2)cc1,-4.62%,–,–

# Two entries from above, tab-delimited:
Compound	cell number change	AC50 [1]	AC50 [2]
COc1ccc(OC)c(CN2CCC(C(=O)N3CCOCC3)CC2)c1	11.1%	0.461 µM [falling, single point]	–
Cc1ccc(C)c(OCCCCN2CCNCC2)c1C	-16%	–	18.4 µM [rising, single point]

# Additional results:

Compound,cell number change,AC50 [1],AC50 [2]
C/C(CC(=O)Nc1ccc(Cl)cc1C(F)(F)F)=N\NC(=O)c1cccs1,–,–,"0.366 µM [rising, full curve, poor fit]"
O=C(CCCN1C(=O)/C(=C/c2cccc(Br)c2)SC1=S)N1CCOCC1,-1.9%,"0.731 µM [rising, single point]",–
CCn1cc(C(=O)NCCCOC(C)C)c(=O)c2cc(S(=O)(=O)N3CCOCC3)ccc21,–,–,"23.1 µM [falling, single point]"
CCN(CC)C1CCN(C(=O)c2ccc(OC3CCN(Cc4ccccn4)CC3)cc2)C1 (stereo unspecified),-19.6%,–,"0.82 µM [falling, single point]"
Cc1cc(=O)oc2cc(OCC(=O)N3CC[C@@]4(O)CCCC[C@H]4C3)c(Cl)cc12,-17.2%,–,–
O=C(COc1cc(Cl)c(Cl)cc1Cl)NC(=O)Nc1ccc2c(c1)OCCO2,-12%,–,"0.00517 µM [falling, full curve, poor fit]"
O=C1c2oc3ccccc3c(=O)c2C(c2cccnc2)N1Cc1ccco1 (stereo unspecified),–,"0.058 µM [rising, full curve, poor fit]","0.0731 µM [rising, full curve, poor fit]"
CN(C)S(=O)(=O)c1ccc(NC(=O)N2CCN(c3ccccc3)CC2)cc1,171%,"29.1 µM [rising, partial curve, poor fit]",–
O=C(O)/C=C\C(=O)Nc1ccc(N2CCN(c3cccc(Cl)c3)CC2)cc1,-53.9%,"20.6 µM [falling, single point]","20.6 µM [falling, single point]"
COc1cc(N=Nc2c(O)c3ccccc3[nH]c2=O)c(OC)cc1N=Nc1ccccc1,-43.9%,"0.0731 µM [falling, full curve, poor fit]","0.184 µM [falling, full curve, poor fit]"
CSc1nc2nccc(-c3ccc(-c4ccccc4)cc3)n2n1,10.8%,"0.731 µM [rising, full curve]","0.517 µM [rising, full curve]"
CCc1ccccc1S(=O)(=O)Cc1ccc(C(=O)NCc2ccc3c(c2)OCO3)o1,–,"0.0731 µM [rising, full curve, poor fit]","0.103 µM [rising, full curve]"
COc1ccccc1-c1nnc2sc(COc3ccc(Cl)cc3)nn12,–,"6.51 µM [rising, single point]","5.8 µM [rising, single point]"
O=C(CN1CCN(c2ncccn2)CC1)N1CCCC1,1.12%,–,"1.46 µM [falling, partial curve]"
O=C(CCNc1cccc(Cl)c1)c1ccco1,14%,–,"18.4 µM [rising, single point]"
Cc1c(NC(=O)C(C)OC(=O)/C=C/c2ccc(OC(F)F)cc2)c(=O)n(-c2ccccc2)n1C (stereo unspecified),8.5%,–,–
CCOC(=O)c1c(C)[nH]c2c1cc(O)c1ccccc12,-8.6%,–,"8.2 µM [falling, partial curve, poor fit]"
O=C(NC1CCCN(Cc2ccc(Cl)cc2)C1)c1ccccc1C(F)(F)F (stereo unspecified),0.824%,–,"6.51 µM [rising, single point]"
N#Cc1ccccc1OCC(=O)N1CCN(S(=O)(=O)c2ccc(Cl)cc2)CC1,2.39%,"0.651 µM [falling, single point]",–
CC1(C)Oc2ccc3ccc(=O)oc3c2-c2cn[nH]c21,163%,"2.91 µM [rising, full curve]","3.26 µM [rising, full curve]"

Compound,cell number change,AC50 [1],AC50 [2]
CC(C)OC(=O)C1C2C=CC3(CN(C(C)c4ccc(Br)cc4)C(=O)C13)O2 (stereo unspecified),–,–,"0.00461 µM [rising, full curve, poor fit]"
Cn1c2ccc(F)cc2c2ncn(CCN3CCOCC3)c(=O)c21,236%,"16.4 µM [rising, partial curve]","6.51 µM [rising, partial curve]"
O=C(Nc1nc(-c2cccnc2)cs1)c1ccc(S(=O)(=O)N2CCOCC2)cc1,-14.3%,–,–
N/N=C/C(=N\Nc1ccc(Cl)cc1)C(=O)c1ccncc1,-0.292%,–,"0.184 µM [rising, full curve, poor fit]"
CC(=O)Oc1ccc(N(C(C)=O)S(=O)(=O)c2cccs2)cc1,–,"6.51 µM [falling, single point]",–
NNC(=O)CNc1cccc(Br)c1,-5.6%,–,"20.6 µM [rising, single point]"
CCCn1cnc2cc(NCc3cccc(OC)c3)ccc21,144%,"0.259 µM [rising, partial curve, poor fit]",–
Cc1ccc(-n2cc(CNCCn3nc(C)cc3C)c(-c3ccc(F)cc3)n2)cc1,-65.5%,"29.1 µM [falling, single point]","18.4 µM [falling, single point]"
COc1ccc2nc(C)cc(C(=O)O)c2c1,3.34%,–,–
CCOC(=O)N1CCC(N2Cc3cccc(C(=O)Nc4ccc(OC)c(OC)c4)c3C2=O)CC1,23.3%,–,"0.00461 µM [rising, full curve, poor fit]"
C=CCN(C(=O)CSc1nc2[nH]ncc2c(=O)n1-c1ccccc1OC)c1ccccc1,7.92%,–,"4.11 µM [rising, full curve, poor fit]"
COc1cc2c(cc1OC)CN(CC(=O)Nc1ccc(C)c(C)c1)CC2,50%,"2.31 µM [rising, partial curve, poor fit]",–
O=C(NC1=NCCS1)c1ccc(Cl)c(S(=O)(=O)N2CCCCC2)c1,132%,"16.4 µM [rising, partial curve]","18.4 µM [rising, partial curve]"
O=C(NCCSc1c[nH]c2ccccc12)c1ccc(Br)o1,-19.4%,–,"23.1 µM [falling, single point]"
COC(=O)C1=C(C)N(Cc2ccccc2)C(=NCc2cc(OC)c(OC)c(OC)c2)N[C@H]1c1ccccc1,8.41% and -6.93%,–,–
CC1CCCCC1NC(=O)CSc1nnc(-c2ccncc2)n1CCCN(C)C (stereo unspecified),-10.5%,–,–
CC1CCN(C2=NC(=O)/C(=C/c3ccc(O)cc3)S2)CC1,-24.4%,–,"29.1 µM [falling, single point]"
COc1ccc2ccccc2c1C1CC(=O)N2CN(Cc3ccco3)CSC2=C1C#N (stereo unspecified),14.8%,–,–
COc1ccc(CCNC(=O)C2CCN(S(=O)(=O)c3c(C)noc3C)CC2)cc1OC,7.58%,–,"4.11 µM [falling, single point]"
C=CCc1cc(C=O)cc(OC)c1OCc1c(Cl)cccc1Cl,-26.3%,–,"25.9 µM [falling, single point]"

# In the list so far, 2 contain a nitro group on carbon.
Compound,cell number change,AC50 [1],AC50 [2]
CC(=O)Nc1ccc(NC(=O)c2ccccc2S(=O)(=O)c2ccccc2[N+](=O)[O-])cc1,52.5%,"29.1 µM [rising, single point]","29.1 µM [falling, single point]"
Cn1c(COc2ccc([N+](=O)[O-])cc2)nnc1SCC(=O)NCC1CCCO1 (stereo unspecified),-20%,–,"0.206 µM [rising, single point]"
